## Results of single-concentration screens

Source: ChEMBL document CHEMBL3988442, “University of Dundee, Small-Polar-MMV Screening Library” (2021).

A: 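Whole-cell growth test on Mycobacterium tuberculosis, read after 4 days in a medium based on cholesterol and the lipid DPPC; the read-out is not stated. Compounds at 50 µM. Higher reads as more growth inhibition (inferred: compounds with an IC50 in retests scored well above the rest). Of about 69,000 compounds tested this way, about 370 (0.54%) reached 50% or more in at least one test.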
B: 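Whole-cell growth test on Mycobacterium tuberculosis, read after 3 days in glucose-containing 7H9 medium; the read-out is not stated. Concentration: 50 µM. Direction is inferred from retests: higher values go with more growth inhibition. About 69,000 compounds were tested under these conditions; 1.1% (about 760) showed 50% or more at least once.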

Each number is a percent effect as filed.
The controls that fix the scale are not given in the record; negative values are as filed.
The compounds are a random part of those screened.
Two or more numbers in one place are separate tests of the same structure; such repeats can differ widely.

compound,A,B
[H][C@@]12CN(C(=O)NC3CCCC3)C[C@]1(C(=O)O)CN(c1ccncc1)C2,-0.8743,-7.236 & 0.6152
O=C(C1CCOC1)N1CCC2(CC1)CN(c1ncccn1)CCO2.O=C(O)C(F)(F)F (centres undefined),-1.48 & -28.41,-20.47
CO[C@@H]1CO[C@@]2(CCN(C(=O)COc3ccccc3C)C2)C1,0.3913 & -3.443,21.74 & -2.191
CCc1nnc2sc(-c3cc(C(C)C)n[nH]3)nn12,18.5,24.79
CSc1nccn1-c1ccc(C(=O)NCC2CC2)cc1,-5.608,3.804
O=C(COc1ccc(F)cc1)N1CCCSCC1CN1CCOCC1 (centres undefined),-6.167,4.026 & -1.084
Cn1nccc1C1CCN(Cc2ccn(-c3ccccc3)n2)CC1,-22.86,9.07 & -11.77
COc1cc2nc(NCCN3CCNC3=O)cc(C)c2cc1OC,-3.894,-58.19
COC(=O)NCCC(=O)NC(c1ccc(Cl)cc1)C(F)(F)F (centres undefined),-4.219,20.35 & -1.261
Cc1cccc(C)c1OC1CN(C(=O)C2CCN(C(=O)N(C)C)CC2)C1,-6.988,-10.24
CCN1CCN(C(=O)c2scnc2C)CC1,-11.88,-6.49
CCOc1cncc(N2CCN(c3ccccc3F)CC2)n1,21.63,45.67
Cc1ncc2c(n1)CN(CC(=O)Nc1ccc(Cl)cn1)CC2,-1.857,-8.299
Cc1cc(C(NC(=O)CNS(C)(=O)=O)C(C)C)c(C)s1 (centres undefined),5.002,5.821
Cc1cc(O)n(-c2ccc3nnc(C)n3n2)n1,-28.91,-18.94
O=C(CN(Cc1cccc(F)c1)CC1CCCO1)N1CCCC1 (centres undefined),7.086,8.219
O=C(O)C(F)(F)F.[H][C@]12CN(Cc3cccs3)C[C@@]1([H])OCCN(C(=O)c1ccsc1)C2,3.063,6.022 & 10.89
Cc1occc(=O)c1OCC(=O)N1CCN(c2ccccc2)CC1,-15.32,0.9782
CC(O)CN1CCC(CNCc2ccc(OC(F)(F)F)cc2)CC1 (centres undefined),11.97,29.48
O=C(c1ccc(Br)s1)N1CCN(Cc2ccc(OC(F)(F)F)cc2)CC1,26.18,10.07 & 27.83
CN(C)C(CNC(=O)c1ccc(-n2cnnn2)cc1)c1ccccc1Cl (centres undefined),6.151,31.42
CCc1ccccc1NC(=O)N1CCn2cnc(COC)c2C1,35.23,44.33
O=C(O)C(F)(F)F.O=C(O)C(F)(F)F.O=C(O)C(F)(F)F.[H][C@]12CCN(c3ncc(F)cn3)C[C@@]1([H])OCCN(Cc1ccncc1)C2,-20.37,-12.44
CC1(C)C[C@H](CCNC(=O)c2ccncc2)c2ccccc2O1,7.031,35.44
Cc1cnn(CC2CN(Cc3cccnc3)CCO2)c1 (centres undefined),14.76,32.71
O=C(C(c1ccccc1)S(=O)(=O)c1ccccn1)N1CCCCC1 (centres undefined),2.569,-3.324 & -12.83
O=C(O)CCCNC(=O)N1CCc2c([nH]c3ccc(Cl)cc23)C1,-15.77,-5.577
Clc1cc(N2CCC(N3CCCC3)CC2)nc2[nH]ccc12,-8.361,-1.443
CC(=O)NCC(=O)Nc1cc(C)n(-c2ccc(Cl)cc2Cl)n1,-11.36,13.13
Cc1ccc(OC2CCN(S(=O)(=O)N(C)C)CC2)nc1,9.944,2.703
O=C(NC1CCN(C2CC2)CC1)N1CCN(c2cnccn2)CC1,-14.13,-3.072 & -35.45
C1CCC(CNC2CCCN(Cc3noc(C4CC4)n3)C2)CC1 (centres undefined),16.55,15.45 & 31.71
Cn1cc(CN2CCCCC2c2ccc(-c3cnn(C)c3)nc2)cn1 (centres undefined),5.156,2.081
COC(=O)c1cc(C(=O)N2CCC(OC)CC2)n(-c2ccccc2)n1,13.85,16.63
Clc1cc(CN2CCCC(Cn3cncn3)C2)c2ncccc2c1 (centres undefined),6.208,14.66 & 12.28
Cc1nc(N2CCN(C(=O)c3ccccn3)CC2)c2c(n1)c(C)nn2C,-0.5788,-26.6
CCC(CC)NC(=O)CN1CCSCC1,-2.669,7.468
[H][C@@]12CS(=O)(=O)C[C@]1([H])N(Cc1cccc(C#N)c1)CCN2C(=O)C1CCC1,0.7886,15.64 & 3.062
Cc1cc(-c2nccs2)nc(C2CCN(Cc3cccs3)CC2)n1,12.15,35.85

Once more, the final 3:

{"compound": "CCC(CC)NC(=O)CN1CCSCC1", "A": -2.669, "B": 7.468}
{"compound": "[H][C@@]12CS(=O)(=O)C[C@]1([H])N(Cc1cccc(C#N)c1)CCN2C(=O)C1CCC1", "A": 0.7886, "B": "15.64 & 3.062"}
{"compound": "Cc1cc(-c2nccs2)nc(C2CCN(Cc3cccs3)CC2)n1", "A": 12.15, "B": 35.85}